Hit rate of the full screen: of about 410,000 compounds, about 18,000 (4.4%) were called active. Inconclusive means that the source gave no clear call. Such entries were picked first, then a sample of the others. Cut-off read from the data, not from the text of the source: active = activity change below about -60%; inconclusive = no clear call, values can overlap the other calls; inactive = above about -39%.
Assay: qHTS Assay for inhibitors of the human cytomegalovirus (HCMV)
Settings: HFF cells, HCMV-luciferase reporter, 72 h; at 57.5 µM; active compounds read low
Method in brief: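 Screen run at 2 compound doses on HFFs infected with reporter HCMV, MOI 1 PFU/cell. Luciferase activity from cell lysates at 72 h post infection gave inhibition relative to buffer-only and Salinomycin wells.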
% is set by controls: 0 for no effect and ±100 for the full control effect.

SMILES | activity change, negative = inhibition
CCOc1ccc(NC(=O)c2ccc(NC(=S)NC3CC3)cc2)cc1 | inconclusive: -44.2%
CCC(=O)Oc1ccc(-c2nc3ccccc3c(=O)o2)cc1 | inactive: 14.7%
CCSc1nnc(NC(=O)C(CC)(C(F)(F)F)C(F)(F)F)s1 | inconclusive: -57.6%
O=C(Nc1cccc(-c2cccc(Cl)c2)c1)C1CCN(Cc2ccccn2)CC1 | active: -74.3%
Cc1cc(NC(=O)c2cccc(Oc3ccccc3)c2)n[nH]1 | active: -70.9%
CCCc1cc(=O)oc2cc(OCC(=O)NCCCN3CCOCC3)c(Cl)cc12 | inactive: -4.7%
COCC1CCN(C(=O)CCc2nnc(C3(c4ccc(Cl)cc4)CCC3)o2)CC1 | inconclusive: -41%
CC(=O)/C(=N\Nc1ccc(Cl)cc1Cl)Sc1cccc2cccnc12 | active: -103%
O=C1Nc2ccc(Br)cc2/C1=N\N=C\C1=C(N2CCOCC2)C(=C/c2ccccc2)/CC1 | inconclusive: -54.1%
Cc1ccc(N(C(=O)CNC(=O)c2ccco2)C(C(=O)NC2CCCC2)c2ccncc2)cc1C (stereo not drawn) | active: -66.7%
N#Cc1ccc(CSc2nnc(-c3c[nH]c4ccccc34)n2-c2ccccc2)cc1 | active: -64.3%
COc1ccc(-n2nc3c(N4CCC(C(=O)NCC(C)c5ccccc5)CC4)nnc(C)c3c2C)cc1 (stereo not drawn) | inconclusive: -52.6%
COOCC1(C(=O)OC)C[C@H](c2ccc(OC)cc2)N(Cc2ccccc2OC)[C@@H]1c1ccccc1C (stereo partly drawn) | inconclusive: -58.4%
CCc1nc2ccc(C(=O)NCc3ccccc3OC)cn2c1N(C)Cc1ccc(OC)cc1 | inconclusive: -49%
COc1ccc(-c2c[n+]3c(n2-c2ccccc2)SCC3)cc1OC | inconclusive: -47.8%
O=C(CC1(O)C(=O)N(CCc2ccccc2)c2ccc(Br)cc21)c1ccccc1O (stereo not drawn) | active: -76.6%
CCCCN1CC(O)=C(c2nc(-c3ccc(Br)cc3)cs2)C1=N | inconclusive: -55.7%
CCC1CN(C(=O)N2CCC(C(=O)NCc3cccs3)CC2)c2cc(C)ccc2O1 (stereo not drawn) | inactive: -17%
O=S(=O)(c1ccc(Cl)cc1)N1CCN(C(=S)Nc2ccc(F)c(Cl)c2)CC1 | active: -61.8%
COc1ccc(NC(=O)CSC2=C(C#N)C(c3ccco3)C3=C(CCCC3=O)N2)c(OC)c1 (stereo not drawn) | inactive: 15.4%
O=C(Nc1cccc(C(F)(F)F)c1)c1ccc(Cn2cc(Br)cn2)o1 | inconclusive: -43.8%
O=C(COC(=O)c1ccc(F)c(S(=O)(=O)N2CCOCC2)c1)NCc1ccc(F)cc1 | inconclusive: -53.7%
CCN(CC)C(=O)CSc1nc2ccccc2c(=O)n1CC1CCCCC1 | inconclusive: -50.7%

Look-ups from the results shown.
`CC(=O)/C(=N\Nc1ccc(Cl)cc1Cl)Sc1cccc2cccnc12` | activity change, negative = inhibition: active: -103%
`CCC(=O)Oc1ccc(-c2nc3ccccc3c(=O)o2)cc1` | activity change, negative = inhibition: inactive: 14.7%

Source: PubChem BioAssay AID1259415 (National Center for Advancing Translational Sciences (NCATS), 2018)
